# Measured values: PubChem BioAssay AID493014 (National Center for Advancing Translational Sciences (NCATS), 2011)
# Where “and” joins values, the source holds several entries; their conditions need not be identical. Equal entries are not always repeated. The list shows a part of the results. Shown are side measurements of this screen, not its main read-out; they come without a call. The list favours compounds with an active or inconclusive main result. Potencies come from curve fits of mixed quality, noted in brackets.
# Test: qHTS Assay to Find Inhibitors of Chronic Active B-Cell Receptor Signaling
# Conditions: ABC-DLBCL IkBa-CBG/CBR reporter, luminescence ratio (green luciferase fused to IkBa over red control in TMD8 lymphoma cells), 4 h
# In short: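 Concentration-response series (up to 46 uM) were applied to TMD8 dual-reporter cells for 4 h at 37C with doxycycline. Green/red ratio, after filter-overlap correction, defined %Activity; red signal alone was normalised to basal cells and zero luminescence.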
# [1] = measured here: CBR red luminescence, cell number
# [2] = measured here: IkBa-CBG green luminescence
Compound,AC50 [1],AC50 [2]
CC1=C/C(=N\NC(=S)Nc2cccnc2)CC(C)(C)C1,"3.98 µM [rising, full curve, poor fit]","3.16 µM [falling, single point]"
Cc1ccc(NC(=O)c2ccc3c(c2)C(=O)N(c2cc(C)ccc2C)C3=O)nc1,"0.794 µM [rising, full curve, poor fit]",–
CCOC(=O)C(NCc1ccccc1)(NC(=O)c1ccccc1)C(F)(F)F (stereo unspecified),"18.4 µM [rising, single point]","20.6 µM [falling, partial curve, poor fit]"
COCCNC(=S)N1CCN(c2nc(-c3ccc(F)cc3)cs2)CC1,"35.5 µM [falling, single point]",–
O=C(CCCc1ccccc1)Nc1nnc(C(F)(F)F)s1,"35.5 µM [falling, single point]",–
CCOC(=O)c1ccc(NC(=S)NCC(O)c2ccccc2)cc1 (stereo unspecified),"11.2 µM [falling, partial curve]",–
O=C(Nc1nc2ccc(Cl)cc2s1)c1ccc(Br)o1,"0.366 µM [falling, full curve, poor fit]",–
Cc1ccc(C(=O)CC(=O)c2cc(Cl)ccc2O)cc1,"1.84 µM [rising, partial curve, poor fit]",–
Cc1ccc2occ(/C=N/NC(=O)c3ccccc3Br)c(=O)c2c1,"2.82 µM [falling, full curve, poor fit]",–
O=C(/C=C/c1ccccc1)NNC(=O)c1ccco1,"10 µM [falling, partial curve]",–
O=C(NC1(C(F)(F)F)N=C(c2ccccc2)NC1=O)c1ccc(Cl)cc1Cl (stereo unspecified),"7.94 µM [rising, partial curve, poor fit]",–
CC(C)(C)NC(=S)NNC(=O)c1cccc(Br)c1,"3.55 µM [rising, single point]","5.62 µM [falling, single point]"
Cc1ccc(-c2nc3cc(NC(=O)C(C)C)ccc3o2)cc1,"11.6 µM [rising, partial curve, poor fit]",–
COc1ccc(CCN(C)Cc2ccc(C(=O)Nc3ccccc3)cc2)cc1OC,"14.1 µM [falling, single point]",–
CCn1ncc([N+](=O)[O-])c1C(=O)n1nc(C)cc1C,"32.6 µM [rising, single point]",–
Clc1ccccc1Nc1c2c(nc3ncnn13)CCC2,"14.1 µM [rising, partial curve, poor fit]",–
Cc1ccc2[nH]c3c(c2c1)CCNC3=O,"7.08 µM [falling, partial curve]",–
Cc1ccc(N2C(=O)C3C4C=CC(CC4)C3C2=O)cc1Br (stereo unspecified),"35.5 µM [falling, partial curve, poor fit]",–
CC(=O)C1=C(O)C(=O)N(CCCN2CCOCC2)C1c1ccccc1[N+](=O)[O-] (stereo unspecified),"35.5 µM [falling, single point]",–
Cc1ccc2c(C)c(C(=O)N(C)Cc3ccncn3)oc2c1C,"12.6 µM [rising, single point]",–
Clc1ccc(CSc2nnc(-c3c[nH]c4ccccc34)o2)cc1,"29.1 µM [falling, single point]",–

Compound,AC50 [1],AC50 [2]
CC(=O)c1ccc(Oc2cc(C)nc(NCc3ccccc3)n2)cc1,"6.31 µM [falling, single point]",–
C[C@H]1CN([C@@H](C)CO)C(=O)Cc2cc(NC(=O)CCC(F)(F)F)ccc2O[C@H]1CN(C)Cc1ccc(-c2ccccc2)cc1,"20.6 µM [falling, partial curve]",–
O=C(CN(c1ccccc1)S(=O)(=O)c1ccc(F)cc1)NCc1cccs1,"23.1 µM [rising, single point]",–
OC(CN(c1ccccc1)c1ccccc1)Cn1cnc2ccccc21 (stereo unspecified),"7.31 µM [falling, partial curve, poor fit]",–
O=C(Nc1ccc(S(=O)(=O)Nc2ncccn2)cc1)C1=COCCO1,"29.1 µM [rising, single point]",–
CCOC(=O)c1c(C)[nH]c(O)c1C=Nc1ccc(Cl)cc1,"3.16 µM [falling, partial curve, poor fit]",–
Cc1ccccc1NC(=O)OCc1ccccc1,"15.8 µM [falling, partial curve]",–
CN(C)CCCN(Cc1cc2cc3c(cc2[nH]c1=O)OCO3)C(=S)Nc1cccc(Cl)c1,"35.5 µM [falling, single point]",–
CC(=O)c1ccc(NC(=O)C(C)n2nc(-c3ccccc3)c3cc(Cl)ccc32)cc1 (stereo unspecified),"23.1 µM [rising, partial curve, poor fit]",–
Cn1nnnc1SCc1nnc(-c2ccc(F)cc2)o1,"0.366 µM [rising, full curve, poor fit]",–
CC(C)CC(=O)NC(=S)Nc1nc(-c2ccccc2)cs1,"0.651 µM [rising, full curve, poor fit]",–
Cc1ccc2nc(N3CCN(c4ccccc4F)CC3)c(C=O)c(=O)n2c1,"11.2 µM [rising, partial curve, poor fit]",–
Cc1cc(N2CCN(C)CC2)nc2ccc(NC(=S)N3CCC4(CC3)OCCO4)cc12,"1 µM [falling, partial curve, poor fit]",–
O=C(NCc1ccc2c(c1)OCO2)c1nc(S(=O)(=O)Cc2ccccc2F)ncc1Cl,"35.5 µM [falling, single point]",–
CCCCOc1ccccc1NC(=O)CC1Nc2ccccc2NC1=O (stereo unspecified),"14.1 µM [falling, single point]",–
COc1cc(NC(=O)Cn2ncc(Cl)c(Cl)c2=O)c(C)cc1[N+](=O)[O-],"3.98 µM [falling, partial curve, poor fit]",–
O=C1c2ccccc2OC2(C=Cc3ccccc3O2)N1Cc1ccccc1 (stereo unspecified),"29.1 µM [rising, single point]",–
O=C(CSc1nc2nccnc2c(=O)n1Cc1cccs1)Nc1ccccc1F,"2.51 µM [falling, full curve]",–
Cc1ccc(-n2ccnc2SCC(=O)c2c(N)n(C3CC3)c(=O)[nH]c2=O)cc1C,"29.1 µM [rising, single point]",–
COc1cc(CNC2CCCC2)cc(Cl)c1OCc1ccccc1F,"16.4 µM [falling, partial curve, poor fit]",–
CCOC(=O)N1CCN(C(=O)Cn2ccc3ccccc3c2=O)CC1,"0.00411 µM [rising, full curve, poor fit]",–

# Two of the compounds above, bar-delimited.
Compound | AC50 [1] | AC50 [2]
CCCCOc1ccccc1NC(=O)CC1Nc2ccccc2NC1=O (stereo unspecified) | 14.1 µM [falling, single point] | –
COc1cc(NC(=O)Cn2ncc(Cl)c(Cl)c2=O)c(C)cc1[N+](=O)[O-] | 3.98 µM [falling, partial curve, poor fit] | –

# (more compounds)

Compound,AC50 [1],AC50 [2]
O=C(NCc1ccccc1)c1ccc2c(c1)C(=O)N(Cc1ccncc1)C2=O,"14.1 µM [rising, single point]",–
Cc1ccc2[nH]c(CN3CCC(CO)(CC4CCCCO4)CC3)c(C)c2c1 (stereo unspecified),"22.4 µM [falling, partial curve, poor fit]",–
CC(C)Oc1ccc(C(=O)Nc2ccc(NC(=O)c3ccco3)c(Cl)c2)cc1,"35.5 µM [rising, single point]",–
COC(=O)c1c(-c2ccc(SC)cc2)sc2ccccc12,"20.6 µM [rising, partial curve, poor fit]",–
CN(CC(=O)Nc1cccc(F)c1)C(=O)c1cc(-c2ccccc2)nc2ccccc12,"29.1 µM [falling, single point]",–
COc1cccc(-c2csc(NC(=O)Nc3ccccc3)n2)c1,"35.5 µM [falling, single point]",–
Cc1cccc(N=C2NC(=O)/C(=C/c3cccn3C)S2)c1,"5.62 µM [falling, partial curve, poor fit]",–
Cc1ccccc1-c1nc(C#N)c(N2CCCCC2)o1,"7.94 µM [rising, partial curve, poor fit]",–
O=C(O)c1ccc(-n2nc(C(F)(F)F)c3c2CCCC3)cc1,"29.1 µM [falling, single point] and 11.2 µM [falling, partial curve]",–
COc1cccc(-c2nc3ccc(O)cc3c(=O)o2)c1,"0.562 µM [falling, full curve, poor fit]",–
O=C(Nc1ccccc1)c1cccc(S(=O)(=O)Oc2ccc([N+](=O)[O-])cc2)c1,"29.1 µM [falling, single point]",–
CCC1=Nc2cc(C(=O)NCc3ccccc3OC)ccc2Sc2ccc(Cl)cc21,"1.58 µM [rising, full curve, poor fit]",–
N#CCC(=O)Nc1ccc(C(=O)OCC(=O)NCCCc2ccccc2)cc1,"35.5 µM [falling, single point]",–
Cc1c(C#N)c(N)nc(Cl)c1C#N,"0.447 µM [falling, full curve, poor fit]",–
Cc1nc2ccc(NC(=O)c3cccs3)cc2c(=O)n1Cc1ccc(Cl)cc1,"2.59 µM [falling, partial curve, poor fit]",–
Cc1n[nH]c(=S)n1/N=C/c1ccc(Br)o1,"1 µM [falling, full curve]",–
COC(=O)C1Sc2[nH]c(=O)sc2C(c2ccc(Cl)cc2)C1C(=O)OC (stereo unspecified),"7.94 µM [rising, partial curve]",–
CN(C)S(=O)(=O)c1ccc(NC(=O)c2cc(-c3cccs3)nc3ccccc23)cc1,–,"2.31 µM [rising, full curve, poor fit]"
O=C(CN1C(=O)c2ccccc2S1(=O)=O)N1CCc2ccccc21,"0.0891 µM [falling, full curve, poor fit]",–
CCN(CC)CCn1c(/N=C/c2cc(Br)ccc2O)nc2ccccc21,"11.6 µM [falling, partial curve]",–
O=C(c1cc(COc2ccc(F)cc2Cl)on1)N1CCCCCC1,"8.91 µM [rising, partial curve, poor fit]",–
